{"sequences": {"note": "Sequences of proteins named here, by UniProt entry; tags and fusion partners are left off. Residues count along the entry.", "UniProt Q99523, residues 78-831": "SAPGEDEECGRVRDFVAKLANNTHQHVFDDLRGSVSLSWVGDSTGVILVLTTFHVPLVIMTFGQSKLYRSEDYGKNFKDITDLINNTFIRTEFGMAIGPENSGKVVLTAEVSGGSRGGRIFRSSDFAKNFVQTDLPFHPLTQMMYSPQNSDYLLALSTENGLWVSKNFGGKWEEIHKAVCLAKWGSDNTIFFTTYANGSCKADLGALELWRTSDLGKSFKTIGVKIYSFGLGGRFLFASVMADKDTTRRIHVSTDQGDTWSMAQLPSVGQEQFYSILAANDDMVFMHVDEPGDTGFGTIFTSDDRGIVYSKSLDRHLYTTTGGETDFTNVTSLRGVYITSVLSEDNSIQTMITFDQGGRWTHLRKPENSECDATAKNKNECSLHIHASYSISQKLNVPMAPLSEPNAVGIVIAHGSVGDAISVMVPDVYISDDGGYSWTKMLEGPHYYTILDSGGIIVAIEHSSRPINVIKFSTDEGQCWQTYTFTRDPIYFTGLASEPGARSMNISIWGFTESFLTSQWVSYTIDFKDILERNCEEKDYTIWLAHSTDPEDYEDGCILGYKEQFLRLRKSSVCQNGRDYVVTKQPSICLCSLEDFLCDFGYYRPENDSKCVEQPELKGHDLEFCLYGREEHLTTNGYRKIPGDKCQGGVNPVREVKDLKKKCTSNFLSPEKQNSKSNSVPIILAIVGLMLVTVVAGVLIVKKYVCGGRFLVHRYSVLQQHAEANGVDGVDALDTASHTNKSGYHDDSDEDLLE"}, "source": "paper PMC10540051", "biological_target": "Sortilin-tdTomato (human) (UniProt Q99523)", "assay": "FRET or BRET; FLIM: HeLa cells transfected with BDNF-GFP (donor) cocultured with HeLa, HEK293 or SH-SY5Y cells transfected with tdTomato-tagged receptors or tdTomato-GluA2 (acceptor), fixed with 4% PFA; lifetime of GFP measured pixel by pixel; reference: HeLa cells expressing BDNF-GFP alone", "note": "Results are given in words; binding and its absence hold for the method and conditions named. In cells and extracts the contact can be indirect. Some entries that bind do so weakly or less than the wild type. Where a sequence is shown, tags or fusion partners need not be part of it.", "data": [{"binder": "BDNF-GFP (ligand, UniProt P23560 19-247) APMKEANIRGQGGLAYPGVRTHGTLESVNGPKAGSRGLTSLADTFEHVIEELLDEDQKVRPNEENNKDADLYTSRVMLSSQVPLEPPLLFLLEEYKNYLDAANMSMRVRRHSDPARRGELSVCDSISEWVTAADKKTAVDMSGGTVTVLEKVPVSKGQLKQYFYETKCNPMGYTKEGCRGIDKRHWNSQCRTTQSYVRALTMDSKKRIGWRFIRIDTSCVCTLTIKRGR", "values": [{"measurement": "binding", "result": "binds"}]}]}
